The source of these data is PMC9996882.

The chains behind the UniProt entries cited, without tags or fusion partners.
UniProt P61244: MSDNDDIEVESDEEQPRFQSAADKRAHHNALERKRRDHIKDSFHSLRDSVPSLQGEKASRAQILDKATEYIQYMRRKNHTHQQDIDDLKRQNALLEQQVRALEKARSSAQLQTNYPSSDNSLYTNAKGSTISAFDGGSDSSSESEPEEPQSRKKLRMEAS

The target in this assay is T1, Polycomb group RING finger protein 6 (PCGF6) (human (endogenous in human pRCC cell lines)) (UniProt Q9BYE7).
T1 sequence: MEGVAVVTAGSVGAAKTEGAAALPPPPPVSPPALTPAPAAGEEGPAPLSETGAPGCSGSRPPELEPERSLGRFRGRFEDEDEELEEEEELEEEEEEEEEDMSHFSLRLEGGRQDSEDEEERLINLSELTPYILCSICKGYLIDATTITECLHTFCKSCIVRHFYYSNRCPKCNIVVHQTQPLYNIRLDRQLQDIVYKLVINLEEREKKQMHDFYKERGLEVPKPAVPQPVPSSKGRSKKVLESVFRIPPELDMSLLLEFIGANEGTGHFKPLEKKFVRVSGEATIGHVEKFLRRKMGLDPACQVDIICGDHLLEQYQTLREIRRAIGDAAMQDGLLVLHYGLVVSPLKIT
As to the kind of experiment: co-IP; antibody on magnetic beads (MCE) incubated with cell lysate, washed four times, eluted at 100 °C, read by Western blot; precipitating antibody not stated for Fig. 5g. (A western blot detects proteins with antibodies after separation by electrophoresis.)

No constants are given. Whether binding was seen depends on the method and setting. Binding seen in cells or lysates may run through a third protein. Some entries that bind do so weakly or less than the wild type.

MAX (from UniProt P61244 1-160): the binding result was “binds”.

On to KDM5D (from UniProt Q9BY66 1-1539), for which the binding entry is “binds”.
